Laboratory results as given in the supplement of paper PMC10849652.
The list shows a part of the results.

Sequences of proteins named here, by UniProt entry; tags and fusion partners are left off. A change or cut given only in a name is not applied to a line headed by its entry.
UniProt Q08117: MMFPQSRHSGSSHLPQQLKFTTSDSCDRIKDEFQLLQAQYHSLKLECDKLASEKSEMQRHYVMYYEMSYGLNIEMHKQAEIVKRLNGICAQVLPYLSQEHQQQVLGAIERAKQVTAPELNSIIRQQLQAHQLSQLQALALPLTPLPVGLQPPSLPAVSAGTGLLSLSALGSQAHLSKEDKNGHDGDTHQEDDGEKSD
UniProt Q9NPL8: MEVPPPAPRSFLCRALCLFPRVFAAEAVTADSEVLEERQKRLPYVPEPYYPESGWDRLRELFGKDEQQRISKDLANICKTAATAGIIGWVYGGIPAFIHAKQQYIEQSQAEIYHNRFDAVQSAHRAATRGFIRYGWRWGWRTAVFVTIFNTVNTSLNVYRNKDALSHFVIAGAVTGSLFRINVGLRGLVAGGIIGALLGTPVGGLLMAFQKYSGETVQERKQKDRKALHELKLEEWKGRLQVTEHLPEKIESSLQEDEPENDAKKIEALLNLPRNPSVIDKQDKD
UniProt Q99805: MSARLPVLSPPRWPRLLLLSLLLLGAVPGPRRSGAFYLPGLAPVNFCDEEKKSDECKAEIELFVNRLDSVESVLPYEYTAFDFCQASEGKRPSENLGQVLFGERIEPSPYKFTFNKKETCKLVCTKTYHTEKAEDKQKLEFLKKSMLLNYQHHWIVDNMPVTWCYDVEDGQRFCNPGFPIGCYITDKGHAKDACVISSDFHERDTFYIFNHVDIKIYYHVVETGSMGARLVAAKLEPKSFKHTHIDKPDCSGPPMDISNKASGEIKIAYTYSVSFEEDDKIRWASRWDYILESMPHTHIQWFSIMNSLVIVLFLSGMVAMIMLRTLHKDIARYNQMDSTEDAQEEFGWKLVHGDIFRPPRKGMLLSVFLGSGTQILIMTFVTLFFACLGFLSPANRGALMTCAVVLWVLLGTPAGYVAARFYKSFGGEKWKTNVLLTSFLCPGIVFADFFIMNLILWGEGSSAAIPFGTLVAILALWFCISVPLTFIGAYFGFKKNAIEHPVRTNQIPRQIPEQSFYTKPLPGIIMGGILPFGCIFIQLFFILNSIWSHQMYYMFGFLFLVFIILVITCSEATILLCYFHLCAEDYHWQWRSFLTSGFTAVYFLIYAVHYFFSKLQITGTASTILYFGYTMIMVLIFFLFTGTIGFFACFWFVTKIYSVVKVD
UniProt Q9Y490: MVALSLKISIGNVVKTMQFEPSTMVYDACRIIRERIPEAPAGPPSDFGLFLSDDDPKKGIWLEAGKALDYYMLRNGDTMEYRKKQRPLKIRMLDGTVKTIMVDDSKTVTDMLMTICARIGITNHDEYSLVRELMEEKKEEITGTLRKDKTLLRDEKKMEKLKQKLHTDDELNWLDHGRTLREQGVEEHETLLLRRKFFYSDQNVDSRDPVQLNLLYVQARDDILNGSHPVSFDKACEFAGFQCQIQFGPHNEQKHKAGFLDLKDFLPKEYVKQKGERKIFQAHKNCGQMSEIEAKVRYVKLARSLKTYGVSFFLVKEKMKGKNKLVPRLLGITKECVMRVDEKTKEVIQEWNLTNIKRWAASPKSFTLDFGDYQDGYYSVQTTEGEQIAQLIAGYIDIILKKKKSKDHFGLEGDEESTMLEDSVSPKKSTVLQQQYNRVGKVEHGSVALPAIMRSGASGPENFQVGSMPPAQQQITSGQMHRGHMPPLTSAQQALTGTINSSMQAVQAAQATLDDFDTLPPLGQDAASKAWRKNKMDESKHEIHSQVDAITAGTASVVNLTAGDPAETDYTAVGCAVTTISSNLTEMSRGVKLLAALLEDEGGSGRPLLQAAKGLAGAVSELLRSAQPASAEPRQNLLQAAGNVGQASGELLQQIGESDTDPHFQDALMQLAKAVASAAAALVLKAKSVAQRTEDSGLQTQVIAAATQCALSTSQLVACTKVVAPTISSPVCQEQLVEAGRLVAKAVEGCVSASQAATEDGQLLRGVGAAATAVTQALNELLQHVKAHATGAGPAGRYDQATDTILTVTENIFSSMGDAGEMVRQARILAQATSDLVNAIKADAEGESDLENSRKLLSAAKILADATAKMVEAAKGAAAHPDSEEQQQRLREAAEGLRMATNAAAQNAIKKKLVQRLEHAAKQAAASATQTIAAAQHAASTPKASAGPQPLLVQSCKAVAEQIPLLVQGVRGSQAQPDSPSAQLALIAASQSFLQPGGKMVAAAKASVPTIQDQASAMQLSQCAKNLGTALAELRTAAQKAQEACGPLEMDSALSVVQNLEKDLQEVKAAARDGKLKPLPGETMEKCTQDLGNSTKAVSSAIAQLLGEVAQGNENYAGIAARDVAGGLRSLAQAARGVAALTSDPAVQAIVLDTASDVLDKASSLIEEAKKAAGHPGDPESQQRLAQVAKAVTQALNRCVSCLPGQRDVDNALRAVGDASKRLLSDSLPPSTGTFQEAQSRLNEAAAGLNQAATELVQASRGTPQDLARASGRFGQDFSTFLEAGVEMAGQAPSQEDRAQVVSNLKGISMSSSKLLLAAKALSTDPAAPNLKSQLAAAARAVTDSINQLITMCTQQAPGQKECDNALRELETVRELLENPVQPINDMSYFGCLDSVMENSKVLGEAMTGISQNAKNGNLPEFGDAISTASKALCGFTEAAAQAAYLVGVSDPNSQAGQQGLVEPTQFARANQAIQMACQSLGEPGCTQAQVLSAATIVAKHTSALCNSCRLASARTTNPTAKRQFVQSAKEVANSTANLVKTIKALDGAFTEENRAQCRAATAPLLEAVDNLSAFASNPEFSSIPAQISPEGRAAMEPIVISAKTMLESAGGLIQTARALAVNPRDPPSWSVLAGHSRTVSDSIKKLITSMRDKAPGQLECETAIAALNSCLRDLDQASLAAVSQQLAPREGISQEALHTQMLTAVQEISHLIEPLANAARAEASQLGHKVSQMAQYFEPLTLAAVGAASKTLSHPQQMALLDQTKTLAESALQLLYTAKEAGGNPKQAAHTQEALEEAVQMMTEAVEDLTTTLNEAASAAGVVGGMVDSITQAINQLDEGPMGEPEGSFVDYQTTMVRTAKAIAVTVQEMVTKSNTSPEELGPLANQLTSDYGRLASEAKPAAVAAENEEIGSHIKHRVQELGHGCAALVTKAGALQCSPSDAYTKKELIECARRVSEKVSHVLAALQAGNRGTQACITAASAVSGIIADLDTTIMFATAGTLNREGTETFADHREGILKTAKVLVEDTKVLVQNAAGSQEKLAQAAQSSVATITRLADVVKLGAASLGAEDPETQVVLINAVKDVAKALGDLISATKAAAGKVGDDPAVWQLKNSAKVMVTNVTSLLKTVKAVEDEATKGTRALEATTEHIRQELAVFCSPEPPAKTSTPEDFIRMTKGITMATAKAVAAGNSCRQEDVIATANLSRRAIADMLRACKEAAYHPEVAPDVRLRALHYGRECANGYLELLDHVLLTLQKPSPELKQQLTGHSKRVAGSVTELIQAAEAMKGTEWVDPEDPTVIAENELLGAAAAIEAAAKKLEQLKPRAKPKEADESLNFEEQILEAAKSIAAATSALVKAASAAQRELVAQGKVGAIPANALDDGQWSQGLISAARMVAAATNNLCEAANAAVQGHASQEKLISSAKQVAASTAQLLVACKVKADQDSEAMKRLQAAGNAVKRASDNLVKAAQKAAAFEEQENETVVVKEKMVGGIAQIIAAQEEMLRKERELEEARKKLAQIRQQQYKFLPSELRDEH
UniProt Q96FV9: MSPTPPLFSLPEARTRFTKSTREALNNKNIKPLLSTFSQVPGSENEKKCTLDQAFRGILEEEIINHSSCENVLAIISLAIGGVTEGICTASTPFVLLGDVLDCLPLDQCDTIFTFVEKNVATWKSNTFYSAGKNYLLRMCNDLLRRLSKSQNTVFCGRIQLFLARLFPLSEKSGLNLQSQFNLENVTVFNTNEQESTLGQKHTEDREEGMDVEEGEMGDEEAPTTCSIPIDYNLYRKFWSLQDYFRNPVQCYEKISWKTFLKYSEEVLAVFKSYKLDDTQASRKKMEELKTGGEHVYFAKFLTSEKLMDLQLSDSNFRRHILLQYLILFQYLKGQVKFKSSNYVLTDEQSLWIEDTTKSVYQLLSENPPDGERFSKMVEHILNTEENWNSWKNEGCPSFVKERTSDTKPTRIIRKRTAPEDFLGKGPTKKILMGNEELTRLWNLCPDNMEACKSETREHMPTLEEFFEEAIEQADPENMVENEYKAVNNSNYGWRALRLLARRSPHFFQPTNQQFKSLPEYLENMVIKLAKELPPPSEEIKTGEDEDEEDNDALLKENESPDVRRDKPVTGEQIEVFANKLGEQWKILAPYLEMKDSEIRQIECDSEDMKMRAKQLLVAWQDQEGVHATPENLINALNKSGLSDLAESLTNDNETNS
UniProt P49755: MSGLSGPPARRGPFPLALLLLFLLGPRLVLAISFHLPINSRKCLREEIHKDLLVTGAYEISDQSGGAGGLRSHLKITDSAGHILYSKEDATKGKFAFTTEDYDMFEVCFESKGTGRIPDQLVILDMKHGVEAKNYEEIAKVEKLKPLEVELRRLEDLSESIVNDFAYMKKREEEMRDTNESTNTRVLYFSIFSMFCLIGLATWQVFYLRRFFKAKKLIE
UniProt Q86UE8, whole entry, looked up: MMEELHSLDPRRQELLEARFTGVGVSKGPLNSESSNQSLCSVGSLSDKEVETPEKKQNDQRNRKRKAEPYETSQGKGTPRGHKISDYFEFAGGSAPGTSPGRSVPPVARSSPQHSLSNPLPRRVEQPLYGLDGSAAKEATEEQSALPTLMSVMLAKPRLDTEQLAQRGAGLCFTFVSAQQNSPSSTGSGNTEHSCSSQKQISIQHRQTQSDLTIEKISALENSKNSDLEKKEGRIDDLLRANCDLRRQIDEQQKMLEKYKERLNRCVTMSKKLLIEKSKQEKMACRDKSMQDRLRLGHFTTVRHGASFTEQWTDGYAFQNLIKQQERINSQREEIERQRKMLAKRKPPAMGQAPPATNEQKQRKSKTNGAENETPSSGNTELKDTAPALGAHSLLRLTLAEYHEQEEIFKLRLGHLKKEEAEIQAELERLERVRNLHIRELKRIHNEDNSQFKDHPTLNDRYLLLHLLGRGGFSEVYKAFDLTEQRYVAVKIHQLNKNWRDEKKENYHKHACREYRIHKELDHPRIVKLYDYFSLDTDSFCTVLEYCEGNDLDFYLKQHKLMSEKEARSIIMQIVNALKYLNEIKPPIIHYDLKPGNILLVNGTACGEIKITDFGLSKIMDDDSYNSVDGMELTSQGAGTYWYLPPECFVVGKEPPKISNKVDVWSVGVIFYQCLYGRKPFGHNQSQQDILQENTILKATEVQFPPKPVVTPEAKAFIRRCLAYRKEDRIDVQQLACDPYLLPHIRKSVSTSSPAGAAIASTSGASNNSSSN
UniProt Q9Y2W1: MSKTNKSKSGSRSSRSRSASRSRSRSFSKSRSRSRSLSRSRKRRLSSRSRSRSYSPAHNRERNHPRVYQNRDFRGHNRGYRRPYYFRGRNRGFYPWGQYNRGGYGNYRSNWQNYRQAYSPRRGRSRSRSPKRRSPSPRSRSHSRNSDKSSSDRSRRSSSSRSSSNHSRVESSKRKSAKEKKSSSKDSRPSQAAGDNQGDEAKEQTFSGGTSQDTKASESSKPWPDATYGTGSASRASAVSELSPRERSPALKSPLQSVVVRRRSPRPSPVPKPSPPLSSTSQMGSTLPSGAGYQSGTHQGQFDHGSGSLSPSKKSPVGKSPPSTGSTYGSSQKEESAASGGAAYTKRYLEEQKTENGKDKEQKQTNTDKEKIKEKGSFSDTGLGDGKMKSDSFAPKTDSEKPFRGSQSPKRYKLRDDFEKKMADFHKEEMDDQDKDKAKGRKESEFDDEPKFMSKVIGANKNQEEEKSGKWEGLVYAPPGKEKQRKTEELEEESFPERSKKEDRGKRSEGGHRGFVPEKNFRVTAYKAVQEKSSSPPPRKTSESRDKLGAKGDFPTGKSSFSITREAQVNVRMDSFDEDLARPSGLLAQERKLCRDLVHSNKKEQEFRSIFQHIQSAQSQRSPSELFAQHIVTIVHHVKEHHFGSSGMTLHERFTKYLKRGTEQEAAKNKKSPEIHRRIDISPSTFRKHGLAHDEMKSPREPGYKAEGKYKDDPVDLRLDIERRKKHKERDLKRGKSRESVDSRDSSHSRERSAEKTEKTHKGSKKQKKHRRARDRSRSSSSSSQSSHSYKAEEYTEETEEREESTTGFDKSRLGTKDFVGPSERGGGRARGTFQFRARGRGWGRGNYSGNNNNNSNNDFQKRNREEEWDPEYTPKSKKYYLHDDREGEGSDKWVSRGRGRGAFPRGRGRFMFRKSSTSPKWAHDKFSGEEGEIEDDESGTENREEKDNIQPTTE
UniProt O14925: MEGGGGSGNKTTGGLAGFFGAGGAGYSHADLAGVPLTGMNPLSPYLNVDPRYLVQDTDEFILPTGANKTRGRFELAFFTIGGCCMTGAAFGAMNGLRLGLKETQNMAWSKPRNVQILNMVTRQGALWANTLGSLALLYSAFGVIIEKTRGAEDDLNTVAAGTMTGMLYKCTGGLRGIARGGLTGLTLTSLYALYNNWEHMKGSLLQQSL

Columns and labels:
Assay in all cases: log2 fold change, soluble protein after heating vs DMSO (PISA); higher = thermal stabilisation; K562 lysate, 10 uM; active = over 0.2 and 3.5 SD of the protein, either way, in both replicates (recomputed)
vemurafenib = compound: CCCS(=O)(=O)Nc1ccc(F)c(C(=O)c2c[nH]c3ncc(-c4ccc(Cl)cc4)cc23)c1F [vemurafenib]
Procedure, shortened: (§1)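 The values are log-two fold changes in thermal stability compared with solvent controls and come from duplicates. They were obtained by TMTpro 16plex LC-MS/MS, with channel sums equalised, on the supernatant after 21,000xg for 90 min. That supernatant came from crude K562 extract at 1 mg/mL protein treated with 10 μM compound for 30 min, heated for 3 min across 48°C-58°C, pooled and brought to 0.5% NP-40 at 4°C.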

[1] = compound: CCCS(=O)(=O)Nc1ccc(F)c(C(=O)c2c[nH]c3ncc(Cl)cc23)c1F
Procedure, shortened: as §1

barasertib = compound: CCN(CCCOc1ccc2c(Nc3cc(CC(=O)Nc4cccc(F)c4)[nH]n3)ncnc2c1)CCOP(=O)(O)O [barasertib]
Procedure, shortened: as §1

[2] = compound: CC[C@@H]1C(=O)N(C)c2cnc(Nc3ccc(C(=O)NC4CCN(C)CC4)cc3OC)nc2N1C1CCCC1
Procedure, shortened: as §1

volasertib = compound: CC[C@@H]1C(=O)N(C)c2cnc(Nc3ccc(C(=O)N[C@H]4CC[C@H](N5CCN(CC6CC6)CC5)CC4)cc3OC)nc2N1C(C)C [volasertib]
Procedure, shortened: as §1

[3] = compound: CCn1c(C(=O)N(C2CC2)C2CC2)cc2c3c(ncn3C)c(Nc3cc(C)n(C)n3)nc21
Procedure, shortened: as §1

[4] = compound: CCn1cc(-c2ccnc3[nH]c(-c4cccc(CN(C)C)c4)cc23)c(-c2ccc(NC(=O)N(C)C)cc2)n1
Procedure, shortened: as §1

[5] = compound: CN1CCC(CNc2ccc3ncc(-c4cccc(OC(F)(F)F)c4)n3n2)CC1
Procedure, shortened: as §1

saracatinib = compound: CN1CCN(CCOc2cc(OC3CCOCC3)c3c(Nc4c(Cl)ccc5c4OCO5)ncnc3c2)CC1 [saracatinib]
Procedure, shortened: as §1

sotrastaurin = compound: CN1CCN(c2nc(C3=C(c4c[nH]c5ccccc45)C(=O)NC3=O)c3ccccc3n2)CC1 [sotrastaurin]
Procedure, shortened: as §1

alvocidib = compound: CN1CC[C@H](c2c(O)cc(O)c3c(=O)cc(-c4ccccc4Cl)oc23)[C@H](O)C1 [alvocidib]
Procedure, shortened: as §1

Tubastatin A = compound: CN1CCc2c(c3ccccc3n2Cc2ccc(C(=O)NO)cc2)C1 [Tubastatin A]
Procedure, shortened: as §1

[6] = compound: CNC(=O)C1=CC=CC=C1NC2=NC(=NC=C2Cl)NC3=C(C=C(C=C3)N4CCOCC4)OC
Procedure, shortened: as §1

defactinib = compound: CNC(=O)c1ccc(Nc2ncc(C(F)(F)F)c(NCc3nccnc3N(C)S(C)(=O)=O)n2)cc1 [defactinib]
Procedure, shortened: as §1

[7] = compound: CNc1nc(-c2ccc3c(N)n[nH]c3c2)cc(N2C[C@@H](C(=O)NC3CCCCC3)CC[C@H]2C)n1
Procedure, shortened: as §1

encorafenib = compound: COC(=O)N[C@@H](C)CNc1nccc(-c2cn(C(C)C)nc2-c2cc(Cl)cc(NS(C)(=O)=O)c2F)n1 [encorafenib]
Procedure, shortened: as §1

[8] = compound: COC(=O)[C@H](CCSC)NC(=O)C1=C(C=C(C=C1)NC[C@H](CS)N)C2=CC=CC=C2
Procedure, shortened: as §1

alisertib = compound: COc1cc(Nc2ncc3c(n2)-c2ccc(Cl)cc2C(c2c(F)cccc2OC)=NC3)ccc1C(=O)O [alisertib]
Procedure, shortened: as §1

[9] = compound: COc1cc2nc(-c3cc(F)ccc3O)nc(N[C@@H]3CNC[C@H]3C(C)(C)O)c2cc1OC
Procedure, shortened: as §1

gefitinib = compound: COc1cc2ncnc(Nc3ccc(F)c(Cl)c3)c2cc1OCCCN1CCOCC1 [gefitinib]
Procedure, shortened: as §1

Row | Target | log2 fold change (vemurafenib) | log2 fold change [1] | log2 fold change (barasertib) | log2 fold change [2] | log2 fold change (volasertib) | log2 fold change [3] | log2 fold change [4] | log2 fold change [5] | log2 fold change (saracatinib) | log2 fold change (sotrastaurin) | log2 fold change (alvocidib) | log2 fold change (Tubastatin A) | log2 fold change [6] | log2 fold change (defactinib) | log2 fold change [7] | log2 fold change (encorafenib) | log2 fold change [8] | log2 fold change (alisertib) | log2 fold change [9] | log2 fold change (gefitinib)
1 | TLE5 isoform 2 (UniProt Q08117) | inactive: -0.019 | inactive: -0.005 | inactive: -0.091 | inactive: -0.026 | inactive: 0.025 | inactive: -0.08 | inactive: -0.04 | inactive: -0.076 | inactive: 0.063 | inactive: 0.043 | inactive: -0.022 | inactive: 0.113 | inactive: 0.036 | inactive: 0.069 | inactive: 0.007 | inactive: 0.014 | inactive: 0.035 | inactive: 0.025 | inactive: 0.012 | inactive: -0.087
2 | TMBIM6 isoform 2 (UniProt P55061) | inactive: -0.043 | inactive: 0.034 | inactive: 0.02 | inactive: -0.01 | inactive: 0.055 | inactive: -0.025 | inactive: -0.016 | inactive: -0.004 | inactive: 0.024 | inactive: -0.074 | inactive: 0.081 | inactive: -0.006 | inactive: -0.004 | inactive: 0.084 | inactive: 0.064 | inactive: 0.074 | inactive: -0.028 | inactive: -0.016 | inactive: -0.068 | inactive: 0.002
3 | TIMP1 (UniProt P01033) | inactive: -0.05 | inactive: 0.027 | inactive: 0.034 | inactive: 0.033 | inactive: 0.018 | inactive: -0.051 | inactive: -0.002 | inactive: 0.049 | inactive: 0.029 | inactive: -0.009 | inactive: -0.033 | inactive: 0.046 | inactive: -0.03 | inactive: 0.005 | inactive: 0.014 | inactive: -0.022 | inactive: 0.028 | inactive: 0.04 | inactive: 0.033 | inactive: -0.05
4 | TLK1 isoform 2 (UniProt Q9UKI8) | inactive: 0.001 | inactive: -0.003 | inactive: 0.06 | inactive: -0.048 | inactive: -0.078 | inactive: 0.01 | inactive: -0.092 | inactive: 0.072 | inactive: 0.014 | active: 0.393 | inactive: -0.05 | inactive: -0.092 | inactive: 0.046 | inactive: 0.16 | inactive: 0.023 | inactive: -0.045 | inactive: -0.14 | inactive: -0.028 | inactive: 0.05 | inactive: 0.01
5 | TIMMDC1 (UniProt Q9NPL8) | inactive: -0.076 | inactive: -0.006 | inactive: 0.001 | inactive: 0.074 | inactive: 0.029 | inactive: 0.001 | inactive: -0.023 | inactive: -0.023 | inactive: 0.005 | inactive: -0.023 | inactive: 0.015 | inactive: 0.036 | inactive: 0.085 | inactive: -0.013 | inactive: 0.048 | inactive: -0.02 | inactive: -0.01 | inactive: -0.108 | inactive: -0.015 | inactive: -0.048
6 | TM9SF2 (UniProt Q99805) | inactive: 0.043 | inactive: 0 | inactive: 0.016 | inactive: 0.005 | inactive: 0.007 | inactive: -0.018 | inactive: -0.105 | inactive: 0.064 | inactive: 0.003 | inactive: 0 | inactive: -0.047 | inactive: -0.005 | inactive: 0 | inactive: 0.001 | inactive: 0.009 | inactive: 0.042 | inactive: -0.036 | inactive: 0.002 | inactive: 0.008 | inactive: 0.021
7 | TIMM22 (UniProt Q9Y584) | inactive: -0.095 | inactive: 0.012 | inactive: 0.049 | inactive: 0.096 | inactive: 0.006 | inactive: 0.044 | inactive: -0.069 | inactive: -0.014 | inactive: -0.115 | inactive: 0.002 | inactive: 0.023 | inactive: 0.072 | inactive: 0.027 | inactive: 0.018 | inactive: -0.141 | inactive: 0.05 | inactive: -0.019 | inactive: 0.027 | inactive: 0.029 | inactive: -0.027
8 | TLN1 (UniProt Q9Y490) | inactive: -0.02 | inactive: 0.002 | inactive: -0.016 | inactive: -0.021 | inactive: 0.006 | inactive: 0.007 | inactive: -0.025 | inactive: 0.021 | inactive: 0.003 | inactive: -0.011 | inactive: -0.001 | inactive: 0.01 | inactive: -0.011 | inactive: -0.009 | inactive: -0.009 | inactive: -0.014 | inactive: 0.021 | inactive: 0.006 | inactive: -0.005 | inactive: -0.017
9 | THOC1 (UniProt Q96FV9) | inactive: -0.027 | inactive: 0.007 | inactive: -0.007 | inactive: -0.053 | inactive: -0.01 | inactive: 0.009 | inactive: -0.113 | inactive: 0.026 | inactive: 0.008 | inactive: 0.02 | inactive: -0.012 | inactive: -0.056 | inactive: -0.009 | inactive: 0.009 | inactive: -0.037 | inactive: 0.01 | inactive: 0.07 | inactive: -0.011 | inactive: 0.001 | inactive: 0.032
10 | TMED10 (UniProt P49755) | inactive: 0 | inactive: -0.009 | inactive: -0.008 | inactive: 0.078 | inactive: 0.011 | inactive: 0.008 | inactive: 0.074 | inactive: -0.117 | inactive: -0.005 | inactive: -0.051 | inactive: 0.043 | inactive: 0.028 | inactive: -0.006 | inactive: -0.002 | inactive: -0.021 | inactive: 0.015 | inactive: -0.015 | inactive: -0.037 | inactive: -0.044 | inactive: -0.083
11 | TMEM168 (UniProt Q9H0V1) | inactive: -0.081 | inactive: 0.047 | inactive: 0.062 | inactive: 0 | inactive: 0.086 | inactive: -0.008 | inactive: -0.064 | inactive: 0.066 | inactive: -0.007 | inactive: 0.002 | inactive: -0.031 | inactive: -0.02 | inactive: -0.011 | inactive: 0.076 | inactive: -0.007 | inactive: 0.022 | inactive: -0.224 | inactive: 0.027 | inactive: 0.043 | inactive: 0.292
12 | TLK2 isoform 2 (UniProt Q86UE8) | inactive: -0.015 | inactive: -0.011 | inactive: 0.017 | inactive: -0.068 | inactive: -0.03 | inactive: -0.009 | inactive: -0.171 | inactive: 0.085 | inactive: 0.021 | active: 0.26 | inactive: -0.027 | inactive: -0.07 | inactive: -0.03 | inactive: 0.117 | inactive: -0.071 | inactive: 0.046 | inactive: -0.063 | inactive: -0.01 | inactive: 0.041 | inactive: -0.004
13 | THRAP3 (UniProt Q9Y2W1) | inactive: 0.028 | inactive: 0.011 | inactive: 0.02 | inactive: 0.051 | inactive: 0.005 | inactive: -0.021 | inactive: -0.134 | inactive: 0.072 | inactive: 0.024 | inactive: 0.006 | inactive: -0.037 | inactive: 0.001 | inactive: 0.002 | inactive: -0.022 | inactive: 0.052 | inactive: 0.033 | inactive: -0.048 | inactive: 0.004 | inactive: -0.019 | inactive: -0.009
14 | TIMM23 (UniProt O14925) | inactive: 0.028 | inactive: -0.008 | inactive: 0.021 | inactive: 0 | inactive: 0.022 | inactive: 0.005 | inactive: -0.091 | inactive: 0.029 | inactive: -0.013 | inactive: 0.058 | inactive: -0.024 | inactive: 0.017 | inactive: 0.067 | inactive: -0.063 | inactive: 0.026 | inactive: -0.008 | inactive: 0.032 | inactive: -0.055 | inactive: 0.038 | inactive: 0.004
15 | TMEM11 (UniProt P17152) | inactive: -0.045 | inactive: 0.018 | inactive: 0.03 | inactive: 0.086 | inactive: 0 | inactive: 0.063 | inactive: -0.075 | inactive: 0.038 | inactive: -0.043 | inactive: -0.017 | inactive: 0.034 | inactive: -0.074 | inactive: 0.052 | inactive: 0.061 | inactive: -0.027 | inactive: -0.001 | inactive: -0.148 | inactive: 0.018 | inactive: -0.005 | inactive: 0.013
16 | TMEM179B (UniProt Q7Z7N9) | inactive: 0.071 | inactive: -0.009 | inactive: 0.014 | inactive: 0.075 | inactive: -0.01 | inactive: -0.031 | inactive: 0.071 | inactive: -0.046 | inactive: 0.042 | inactive: 0.082 | inactive: -0.068 | inactive: 0.163 | inactive: 0.125 | inactive: 0.012 | inactive: 0.013 | inactive: 0.046 | inactive: -0.07 | inactive: 0 | inactive: 0.029 | inactive: -0.064

Part of the list above in another layout:

| Row | Target | log2 fold change (vemurafenib) | log2 fold change [1] | log2 fold change (barasertib) | log2 fold change [2] | log2 fold change (volasertib) | log2 fold change [3] | log2 fold change [4] | log2 fold change [5] | log2 fold change (saracatinib) | log2 fold change (sotrastaurin) | log2 fold change (alvocidib) | log2 fold change (Tubastatin A) | log2 fold change [6] | log2 fold change (defactinib) | log2 fold change [7] | log2 fold change (encorafenib) | log2 fold change [8] | log2 fold change (alisertib) | log2 fold change [9] | log2 fold change (gefitinib) |
| --- | --- | --- | --- | --- | --- | --- | --- | --- | --- | --- | --- | --- | --- | --- | --- | --- | --- | --- | --- | --- | --- |
| 5 | TIMMDC1 (UniProt Q9NPL8) | inactive: -0.076 | inactive: -0.006 | inactive: 0.001 | inactive: 0.074 | inactive: 0.029 | inactive: 0.001 | inactive: -0.023 | inactive: -0.023 | inactive: 0.005 | inactive: -0.023 | inactive: 0.015 | inactive: 0.036 | inactive: 0.085 | inactive: -0.013 | inactive: 0.048 | inactive: -0.02 | inactive: -0.01 | inactive: -0.108 | inactive: -0.015 | inactive: -0.048 |
| 15 | TMEM11 (UniProt P17152) | inactive: -0.045 | inactive: 0.018 | inactive: 0.03 | inactive: 0.086 | inactive: 0 | inactive: 0.063 | inactive: -0.075 | inactive: 0.038 | inactive: -0.043 | inactive: -0.017 | inactive: 0.034 | inactive: -0.074 | inactive: 0.052 | inactive: 0.061 | inactive: -0.027 | inactive: -0.001 | inactive: -0.148 | inactive: 0.018 | inactive: -0.005 | inactive: 0.013 |
